These results are taken from US11634451B2, “Method for the site-specific enzymatic labelling of nucleic acids in vitro by incorporation of unnatural nucleotides” (The Scripps Research Institute, priority 2013, dated 2023).

This data set in a line: Post-amplification biotin labeling of DNA analyzed via streptavidin gel shift. (A gel shift assay detects complexes by their altered migration in electrophoresis.)
The mark [1] stands for this setting: FIG. 6A, unnatural base pair centrally located in 134-mer, NHS-PEG4-biotin, streptavidin gel shift.
The mark [2] stands for this setting: FIG. 6B, unnatural base pair at the eleventh position (primer 3).
Setting [3] is: FIG. 6B, unnatural base pair at the first position (primer 1).
[4] abbreviates: FIG. 6B, unnatural base pair at the ninth position (primer 2).

Regarding `COc1cc2ccccc2cc1[C@H]1C[C@H](O)[C@@H](COP(=O)(O)OP(=O)(O)OP(=O)(O)O)O1.Cc1ccc2c(=S)n([C@H]3C[C@H](O)[C@@H](COP(=O)(O)OP(=O)(O)OP(=O)(O)O)O3)cc(C#CCNC(=O)C(Cl)Cl)c2c1` [d5SICSPA-dNaM, reference compound], the labeling efficiency reads like this: under setting [1], 72%; under setting [2], 56%; under setting [3], 6%; under setting [4], 84%.
`Cc1ccc2c(=S)n([C@H]3C[C@H](O)[C@@H](CO)O3)cc(C#CCN)c2c1` [d5SICS^A]: the “coupling efficiency with NHS-ester biotin” value (DNA prepared by PCR amplification) was 70%.
Consider `Cc1ccc2c(=S)n([C@H]3C[C@H](O)[C@@H](COP(O)(=S)OP(=O)(O)OP(=O)(O)O)O3)ccc2c1` (stereo partly shown) [d(5SICS-αS)TP], for which the “conversion of the phosphorothioate bond to the functionalized derivative” value (iodoacetyl-PEG2-biotin, streptavidin gel shift assay) is given as 60-70%.
In the case of `COc1cc2ccccc2cc1C1CC(O)C(CO)O1.O=C(NCC#Cc1cn(C2CC(O)C(CO)O2)c(=S)c2sccc12)C(Cl)Cl` (stereo not shown) [dTPT3PA-dNaM], the labeling efficiency under setting [1] came out at 80%, the labeling efficiency under setting [2] is 81%, the labeling efficiency under setting [3] is on record as 72% and the labeling efficiency under setting [4] turned out to be 94%.
